This note sets out measurements from PMC6355014, “Isolation and characterization of a tandem-repeated cysteine protease from the symbiotic dinoflagellate Symbiodinium sp. KB8” (PLoS ONE, 2019).

Starred links: 1 amine or outer side, 2 acyl side, 3 side chain; linkers in the order of their positions; H or OH if unused. Residues, ends and D or L forms follow the SMILES beside them. CO = O=C([*:1])[*:2]

The subject of the data set is T1, VLKP (VLK protease), purified native.
T1 construct: native purification from algal cells; repeats Lys37-Ala332 and Lys357-Ala652 identical; final prep also held Fe-superoxide dismutase band
Nature of the data set: fluorogenic peptidase assay. It counts as biochemical, Symbiodinium sp. KB8. Conditions: residual activity, control 100%, substrate Boc-VLK-MCA, pH 4.0, 37 °C (standard assay). The source says:
fluorogenic peptidase assay on VLKP (VLK protease), purified native

On to `CC(C)C[C@H](NC(=O)[C@H]1O[C@@H]1C(=O)O)C(=O)NCCCCN=C(N)N` [E-64, trans-epoxysuccinyl-L-leucyl-amido(4-guanidino)butane], for which the “Relative activity (%)” value (1 µM) came out at 2.0 ± 1.1%. For `Cc1ccc(S(=O)(=O)N[C@@H](Cc2ccccc2)C(=O)CCl)cc1` [TPCK], the “Relative activity (%)” value (10 µM) is listed as 17.7 ± 2.4%.

Consider `CC(C)[C@H](NC(=O)[C@H](CCCNC(=N)N)NC(=O)N[C@@H](Cc1ccccc1)C(=O)O)C(=O)N[C@H](C=O)CCCNC(=N)N` [antipain] ({Phe-CO}-Arg-Val-Arg-aldehyde), for which, under “10 µM”, the “Relative activity (%)” value is reported as 9.0 ± 0.4%. As for `CC(=O)N[C@@H](CC(C)C)C(=O)N[C@@H](CC(C)C)C(=O)N[C@H](C=O)CCCNC(=N)N` [leupeptin], the “Relative activity (%)” value (10 µM) is 2.0 ± 1.0%.
